Reference: paper PMC3044754
No constants are given. Whether binding was seen depends on the method and setting. Binding seen in cells or lysates may run through a third protein. For some of these results: A result given as binding can be weak or reduced; the word gives no strength.

Assays:
[1] = target: GFP-tagged WT1-NT, N-terminal fragment of WT1 (1-315 aa) (UniProt P19544); assay: co-IP; human podocytes co-transfected for 48 h with Flag-tagged PINCH1 constructs and GFP-tagged WT1 constructs; lysates immunoprecipitated with anti-GFP overnight at 4°C, protein A/G Plus-Agarose, blotted with anti-Flag
[2] = target: GFP-tagged WT1 (pGFP-WT1) (UniProt P19544); assay: as above
[3] = target: GFP-tagged WT1-CT, C-terminal fragment of WT1 (280-429 aa) (UniProt P19544); assay: as above
GST-WT1 fusion protein = GST-WT1 fusion protein (UniProt P19544); assay: pull-down; purified GST-WT1 on glutathione-agarose beads incubated with podocyte lysate overnight at 4°C; washed three times with lysis buffer; blotted with anti-PINCH1; only the target purified

| Substance | binding [1] | binding [2] | binding [3] | binding (GST-WT1 fusion protein) |
| --- | --- | --- | --- | --- |
| Flag-tagged wild-type PINCH1 (pFlag-PINCH1-wt) (from UniProt P48059 1-325) | no binding | binds | binds |  |
| endogenous PINCH1 (from UniProt P48059 1-325) |  |  |  | binds |
